The data set concerns CHO cell lines. Briefly: subcellular localization by confocal microscopy (EGFP fluorescence), stable cell lines. It is filed as cell-based.

With “human short/mouse species chimeric MCH-1R-EGFP: human short form/mouse species chimeric MCH1R-linker-EGFP, SEQ. ID. NO. 13”, the “subcellular localization (EGFP fluorescence)” value is recorded as “primarily associated with the plasma membrane”.

Turning to “mouse MCH-1R-EGFP: mouse MCH1R fused via 12 amino acid linker to EGFP, SEQ. ID. NO. 11”, the “subcellular localization (EGFP fluorescence)” value is reported as “primarily associated with the plasma membrane”.

The values above are taken from patent US7029878B2, “Melanin concentrating hormone receptor chimeric and fusion proteins” (Merck & Co., Inc., priority 2000, dated 2006).
